Here are results for two molecules from patent US20110124572A1, “SYNDECAN-4 IS A REGULATOR OF RAC1-GTP” (priority 2008, published 2011).

This series has as its system MCF-7 cells. Kind of series: Immunofluorescence microscopy (phalloidin, anti-FAK, anti-vinculin). The series is classed as cell-based, human. The conditions noted are these: for height of cells in clusters: phalloidin-stained clusters, FIG. 4.

B1: Ser179Ala: phosphodefective Ser179 to Ala mutant of human syndecan-4-GFP, expressed in MCF-7 cells (protein, UniProt P31431 19-198, looked up, variant S179A)
Syndecan-4: ESIRETEVIDPQDLLEGRYFSGALPDDEDVVGPGQESDDFELSGSGDLDDLEDSMIGPEVVHPLVPLDNHIPERAGSGSQVPTEPKKLEENEVIPKRISPVEESEDVSNKVSMSSTVQGSNIFERTEVLAALIVGGIVGILFAVFLILLLMYRMKKKDEGAYDLGKKPIYKKAPTNEFYA
modifications: GFP inserted at position 131
notes: phosphodefective Ser179 to Ala mutant of human syndecan-4-GFP, expressed in MCF-7 cells
Turning to B1, the “height of cells in clusters” value is listed as 30 μm.

B2: wt-syndecan-4: human syndecan-4 with GFP inserted at position 131, stably expressed in MCF-7 cells (protein)
chain: ESIRETEVIDPQDLLEGRYFSGALPDDEDVVGPGQESDDFELSGSGDLDDLEDSMIGPEVVHPLVPLDNHIPERAGSGSQVPTEPKKLEENEVIPKRISPVEESEDVSNKVSMSSTVQGSNIFERTEVLAALIVGGIVGILFAVFLILLLMYRMKKKDEGSYDLGKKPIYKKAPTNEFYA
modifications: left off: large carriers
notes: human syndecan-4 with GFP inserted at position 131, stably expressed in MCF-7 cells
Regarding B2, the “height of cells in clusters” value came out at 20 μm. The “mature focal adhesions per cell” value (quiescent cells on fibronectin, anti-FAK or anti-vinculin) is listed as “approximately 60 per cell”.
